Data as given in PubChem BioAssay AID493014 (National Center for Advancing Translational Sciences (NCATS), 2011).
The other results are listed elsewhere or left out. The main result of the screen is listed elsewhere. These columns were measured beside it and carry no call. Most of these compounds were active or inconclusive in the main read-out, so they are no random draw. Words in brackets tell the shape of the fitted curve; partial curves, single points and poor fits give uncertain potencies.

Experiment: qHTS Assay to Find Inhibitors of Chronic Active B-Cell Receptor Signaling
Settings: ABC-DLBCL IkBa-CBG/CBR reporter, luminescence ratio (green luciferase fused to IkBa over red control in TMD8 lymphoma cells), 4 h
Excerpt: NIH Molecular Libraries Probe Production Network [MLPCN] NIH Chemical Genomics Center [NCGC] MLPCN Grant: 1 R03 DA031086-01A1 PI Name: Dr. R. Eric Davis NCGC Assay Overview: Diffuse large B-cell lymphoma (DLBCL) is the most common category of non-Hodgkin lymphoma, with ~20,000 new cases per year in the United States. DLBCL should be regarded as a collection of different neoplasms. Microarray gene expression analysis has defined two principal types of DLBCL, named for their similarity to normal B cell stages or activation states: a germinal center B-cell (GCB) type, and an activated B-cell (ABC) type. In ABC-DLBCL, a constitutive high-level activity of the NF-kappaB family of transcription factors has been observed (1) and NF-kappaB target genes are more highly expressed in ABC primary tumors than in GCB tumors. Functional studies have shown a constitutive high-level activity of the IkappaB (inhibitor of kappa-B) kinase (IKK) complex. […] Further analysis of DLBCL primary tumors for NF-kappaB target gene expression imply that although CARD11 is required for constitutive IKK activity in all ABC-DLBCL lines, mutations in CARD11 may be the root cause of IKK activation only in lines or tumors with such mutations. In other words, CARD11 mutations may explain NF-kappaB activation in only 10% of ABC-DLBCL cases. […] This process has been termed 'chronic active BCR signaling' (CABS). The goal of this screen is to find small-molecule inhibitors of the CABS pathway found in ABC-DLBCL lines using a cell-based assay that measures IkappaBalpa stability, which has already been extensively validated in the OCI-Ly3 line (PubChem AID:445; REF: 4). […] The assay uses green (CBG68) and red (CBR) emitting beetle luciferases [Chroma-GloTM developed by Promega Corp.] where the green luciferase is fused to IkappaBalpha and the red luciferase is present in its native state. Both luciferase genes are stably present in the TMD8 human ABC DLBCL cell line, but their expression is under the control of tetracycline-inducible promoters. Following the addition of doxycycline to induce expression of the luciferases, the green luminescence in control cultures rises only slowly because the CBG fusion partner IkappaBalpha is targeted by IKK activity for rapid degradation. In contrast, green luminescence rises rapidly in the presence of proteasome inhibitors or IKK inhibitors. The rise in red luminescence of CBR is not affected by proteasome or IKK inhibitors, and serves as normalization for cell number and nonspecific effects. Compounds were screened as a concentration-titration series that ranged from 46 uM to 3 nM.
NCGC Assay Protocol Summary: Cells were seeded in 1536-well plates at 5000 cells/4uL in IMDM medium containing 0.5% FBS, w/o phenol red, 1% penicillin/streptomycin. Then, 23 nL of compounds or DMSO were delivered to each well using a pin tool. One uL 20ng/ml doxycycline was then dispensed into white solid 1536-well plates and the plates were incubated at 37C/5% C02 in a cell incubator for 4 hrs. Then 4 uL luminescent substrate mix (in-house prepared: 150 mM Tris-Cl, pH 7.6, 3 mM MgCl2, 1% Triton X-100, 5 mM DTT, 0.2 mM CoA, 0.15 mM ATP, 5 mM D-luciferin, final concentrations) was added to each well. The plate was incubated at r.t. for 10-15 min. The plates were measured on a ViewLux plate reader for green luminescence (540/20 nm filter) and red luminescence (618/8 nm filter). The green and red luminescent signals were corrected for red and green luminescence filter overlap using previously determined filter calibration constants (determined using the procedure outlined in the Promega Technical Manual; REF 4). The %Activity was determined from the ratio of corrected green/red luminescent values. MG132 were used as control. […] Red luminescent %Activity was normalized to the difference between red luminesence in basal cells (0%Activity) and zero luminescence (-100% Activity). […]

[1] = measured here: CBR red luminescence, cell number
[2] = measured here: IkBa-CBG green luminescence

Row | SMILES | AC50 [1] | AC50 [2]
1 | CCOCCCNC(=O)C1CCCN(S(=O)(=O)CC)C1 (stereo not drawn) | 6.51 µM [falling, single point] | 
2 | CCOC(=O)c1[nH]c2ccccc2c1CCCN1C(=O)c2ccccc2C1=O | 15.8 µM [falling, single point] | 
3 | O=C(NC(=S)NNC(=O)c1ccccc1O)c1cccs1 | 7.08 µM [falling, partial curve] | 
4 | CN(CC1CCCO1)S(=O)(=O)c1ccc(C(=O)Nc2nnc(-c3ccccc3)o2)cc1 (stereo not drawn) | 35.5 µM [falling, single point] | 
5 | CC(C)CC(=O)Nc1ccc(C(=O)COC(=O)Cc2n[nH]c(=O)c3ccccc23)cc1 | 16.4 µM [rising, single point] | 
6 | C=CC[C@@H](CC(=O)N(CCO)Cc1ccccc1)C(=O)N[C@H](COC(=O)[C@@H](CC=C)Cc1ccc(F)cc1)c1ccccc1 | 29.1 µM [falling, single point] | 
7 | CCOC(=O)/C(C#N)=C/C1=C(N2CCCC2)CC(C)(CC)OC1 (stereo not drawn) | 3.66 µM [falling, single point] | 
8 | O=C(NCCCCc1ccccc1)c1ccccc1 | 12.6 µM [falling, partial curve] | 
9 | Cc1cccc(NC(=S)NNC(=O)c2ccco2)c1 | 18.4 µM [falling, single point] | 
10 | Cc1ccc(C)c(NC(=O)c2cc(-c3cc(C)ccc3O)n[nH]2)c1 | 10 µM [falling, partial curve] | 
11 | CCc1nc(NCCC(C)C)c2nnn(Cc3ccccc3)c2n1 | 7.94 µM [rising, partial curve, poor fit] | 
12 | COc1cc2[nH]c(=S)n(N(C(C)=O)C(C)=O)c(=O)c2cc1OC | 29.1 µM [rising, single point] | 
13 | CC(C)c1nc2c(c(=O)c3ccccc3n2C)c(=O)n1-c1ccc(F)cc1 | 10.3 µM [falling, partial curve, poor fit] | 
14 | Cc1cc(C)c(OCCN2C(=O)NC(C)(C)C2=O)c(Cl)c1 | 18.4 µM [rising, single point] | 
15 | Nc1ccc(OC(=O)Nc2ccc(O)cc2)cc1 | 35.5 µM [rising, single point] | 25.1 µM [falling, single point]
16 | O=C1NC(=O)C(Cc2ccccc2)(c2cccnc2)N1 (stereo not drawn) | 3.98 µM [falling, full curve] | 
17 | CNS(=O)(=O)c1ccc(NC(=O)c2ccccn2)cc1 | 16.4 µM [falling, single point] | 
18 | COc1ccccc1/C=C/C(=O)N1CCN(S(=O)(=O)c2cccs2)CC1 | 4.61 µM [rising, single point] | 
19 | CC1=C(C(=O)Nc2ccccc2)C(c2ccncc2)C(C#N)=C(SCC(=O)NC(C)C)N1 (stereo not drawn) | 4.11 µM [rising, full curve] | 
20 | COc1ccc(C(=O)Nc2ccc(SC(F)F)cc2)cc1 | 0.461 µM [rising, full curve] | 
21 | O=C(O)C(=O)/C(=C\c1cccc2ccccc12)c1ccc2ccccc2n1 | 29.1 µM [rising, partial curve, poor fit] | 
22 | COc1ccc(-c2csc(Nc3ncccc3C)n2)cc1 | 18.4 µM [falling, partial curve] | 

Row | SMILES | AC50 [1] | AC50 [2]
23 | Cn1c2ccc(F)cc2c2ncn(CCCN(CCO)CCO)c(=O)c21 | 29.1 µM [falling, single point] | 
24 | O=C1C(=O)N(CCN2CCOCC2)C(c2ccc(Cl)cc2)/C1=C(/O)c1ccc(S(=O)(=O)N2CCOCC2)cc1 (stereo not drawn) | 3.16 µM [rising, single point] | 
25 | Cc1cc(NC(=O)c2ccc(Cl)cc2)n(-c2ccccc2)n1 | 5.62 µM [falling, single point] | 
26 | Cc1nnc2sc(-c3ccc(N(C)C)cc3)nn2c1=O | 11.2 µM [falling, single point] | 
27 | CCc1ccc(NC(=O)c2cc(C)on2)cc1 | 22.4 µM [falling, single point] | 
28 | Cc1cccc(NC(=O)C(=O)NCc2ccccn2)c1 | 6.31 µM [falling, partial curve] | 
29 | O=C(Nc1ccccc1O)c1ccc(C(=O)c2ccccc2)o1 | 11.2 µM [falling, partial curve] | 
30 | CCCCOc1ccc(C(=O)Nc2cc(C)c(OCC(=O)N3CCOCC3)c(C)c2)cc1 | 16.4 µM [falling, partial curve, poor fit] | 
31 | c1ccc(N2CCN(Cc3ccnc4ccccc34)CC2)cc1 | 1.46 µM [rising, partial curve, poor fit] | 29.1 µM [falling, single point]
32 | COc1ccc(-c2nc(SCc3ccccc3)n(S(C)(=O)=O)n2)cc1 | 14.1 µM [rising, partial curve] | 
33 | O=C(NCc1ccco1)c1cc(Cl)nc(Cl)c1 | 0.708 µM [falling, full curve, poor fit] | 
34 | COc1ccc2nc(NC(=O)C3CCN(C(=O)c4ccc(F)cc4)CC3)sc2c1 | 14.1 µM [falling, single point] | 
35 | COc1ccc(NC(=O)CSc2nnc3ccc(-c4ccccn4)nn23)cc1 | 23.1 µM [falling, single point] | 
36 | C[C@H]1CN([C@@H](C)CO)C(=O)Cc2cc(NC(=O)CCC(F)(F)F)ccc2O[C@H]1CN(C)S(=O)(=O)c1ccc(Cl)cc1 | 9.2 µM [rising, partial curve] | 
37 | Cc1cc(S(=O)(=O)Nc2ccc3c(c2)n(C)c(=O)n3C)ccc1F | 15.8 µM [rising, partial curve] | 
38 | COCCNC(=O)c1c(N)n(-c2cccc(C)c2)c2nc3ccccc3nc12 | 35.5 µM [falling, single point] | 
39 | O=C(CSc1ncnc2ccccc12)c1ccc2c(c1)OCCO2 | 2.59 µM [falling, full curve, poor fit] | 
40 | CC(C)(C)C1COc2ccccc2N1C(=O)c1ccccc1Cl (stereo not drawn) | 35.5 µM [rising, single point] | 
41 | OC1O[C@H](c2ccc3c(c2)OCO3)[C@H]2CO[C@H](c3ccc4c(c3)OCO4)[C@@H]12 (stereo partly drawn) | 4.47 µM [falling, partial curve, poor fit] | 
42 | CON(c1nc(Cl)nc(N(C)C)n1)S(=O)(=O)c1ccccc1Cl | 35.5 µM [falling, single point] | 
43 | COc1ccc([N+](=O)[O-])cc1N(CC(O)Cn1nnc2ccccc21)S(=O)(=O)c1ccc(C)cc1 (stereo not drawn) | 35.5 µM [falling, single point] | 
44 | CCn1c(Cc2ccccc2)nnc1SCC(=O)Nc1nccs1 | 7.31 µM [falling, full curve] | 

Row | SMILES | AC50 [1] | AC50 [2]
45 | COC(=O)c1ccccc1SC1CC(=O)N(c2cccc(C)c2)C1=O (stereo not drawn) | 23.1 µM [falling, single point] | 
46 | COc1cc(C(=O)NNC2=CC(=O)CC(C)(C)C2)cc(OC)c1OC | 29.1 µM [rising, single point] | 20.6 µM [falling, single point]
47 | COc1ccc(/C=N/c2nc3ccccc3n2CCN2CCCCC2)cc1OC | 13 µM [rising, partial curve, poor fit] | 
48 | CC(C)C[C@H]1CN=C(Nc2ccccc2)N1CCCC1CCCC1 | 35.5 µM [falling, single point] | 
49 | CN(C)Cc1c(-c2ccc(Cl)cc2)nc2ccccn12 | 5.62 µM [rising, single point] | 
50 | COC(=O)COc1cc2ccccc2cc1C(=O)Nc1ccccc1 | 1.78 µM [rising, partial curve, poor fit] | 
51 | C=CCNC(=O)NC(=O)Cn1c(=O)c2c(ncn2CC)n(Cc2ccccc2)c1=O | 15.8 µM [rising, single point] | 
52 | Cc1nnc(NC(=O)c2ccc3ccccc3n2)s1 | 35.5 µM [falling, single point] | 15.8 µM [falling, partial curve, poor fit]
53 | O=C(Nc1nc(-c2ccccn2)cs1)C1CCCC1 | 11.2 µM [falling, partial curve] | 
54 | CCOC(=O)C1=C(C)NC2=C(C(=O)CC(C)(C)C2)C1c1ccsc1 (stereo not drawn) | 0.731 µM [falling, partial curve, poor fit] | 
55 | CC(C)c1ccc(-c2csc(NC(=O)c3cccs3)c2C(=O)O)cc1 | 14.1 µM [falling, single point] | 
56 | NC(=O)c1ccccc1NC(=O)Nc1cccc2ccccc12 | 1.58 µM [falling, full curve] | 
57 | CN(C)c1ccc(/C=N/OC(=O)Nc2ccccc2)cc1 | 7.08 µM [falling, partial curve] | 
58 | Cc1cc(C)cc(N(CC(=O)Nc2cccc(C)n2)S(=O)(=O)c2c(C)noc2C)c1 | 20.6 µM [falling, single point] | 
59 | CC1CCN(c2nc3c(c(=O)[nH]c(=O)n3C)n2Cc2ccccc2)CC1 | 23.1 µM [falling, partial curve, poor fit] | 
60 | Clc1cccc(-c2nnc(SCc3nc4ccccc4[nH]3)n2Cc2ccco2)c1 | 22.4 µM [falling, single point] | 
61 | COc1ccc(-c2cc(=O)n(-c3ccc([N+](=O)[O-])cc3)[nH]2)cc1 | 0.517 µM [rising, full curve] | 
62 | COc1ccc(NC(=O)NCc2ccco2)c(OC)c1 | 35.5 µM [falling, single point] | 
63 | Fc1ccc(NC(=S)N2CCCN(c3ccc(C(F)(F)F)cn3)CC2)c(F)c1 | 12.6 µM [falling, partial curve, poor fit] | 
64 | O=C(CCC1CCCCC1)Nc1ccccc1O | 2.31 µM [falling, full curve, poor fit] | 

An excerpt from above in order of length of the SMILES, smallest number first:
Row | SMILES | AC50 [1] | AC50 [2]
45 | COC(=O)c1ccccc1SC1CC(=O)N(c2cccc(C)c2)C1=O (stereo not drawn) | 23.1 µM [falling, single point] | 
59 | CC1CCN(c2nc3c(c(=O)[nH]c(=O)n3C)n2Cc2ccccc2)CC1 | 23.1 µM [falling, partial curve, poor fit] | 
61 | COc1ccc(-c2cc(=O)n(-c3ccc([N+](=O)[O-])cc3)[nH]2)cc1 | 0.517 µM [rising, full curve] | 
58 | Cc1cc(C)cc(N(CC(=O)Nc2cccc(C)n2)S(=O)(=O)c2c(C)noc2C)c1 | 20.6 µM [falling, single point] | 
